Measurements from PubChem BioAssay AID493014 (National Center for Advancing Translational Sciences (NCATS), 2011).
The list shows a part of the results. These are further read-outs of the screen, such as a control signal, another cell line or another target. No call is given for them. Most of these compounds were active or inconclusive in the main read-out, so they are no random draw. The note in brackets gives the kind of curve behind each potency; many fits are weak.

Assay: qHTS Assay to Find Inhibitors of Chronic Active B-Cell Receptor Signaling
Settings: ABC-DLBCL IkBa-CBG/CBR reporter, luminescence ratio (green luciferase fused to IkBa over red control in TMD8 lymphoma cells), 4 h
Outline: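 Concentration-response series (up to 46 uM) were applied to TMD8 dual-reporter cells for 4 h at 37C with doxycycline. Green/red ratio, after filter-overlap correction, defined %Activity; red signal alone was normalised to basal cells and zero luminescence.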

[1] = measured here: CBR red luminescence, cell number
[2] = measured here: IkBa-CBG green luminescence

SMILES	AC50 [1]	AC50 [2]
COC(=O)c1c(NC(=O)CCCC(=O)O)sc2c1CCCCC2	11.2 µM [falling, single point]	
OCC1(Cc2ccc(F)cc2)CCCN(CCc2ccccc2)C1 (centres undefined)	17.8 µM [rising, partial curve, poor fit]	
Cc1cc(C(=O)COC(=O)CCC(=O)c2ccc3c(c2)OCCO3)c(C)n1Cc1ccco1	8.2 µM [rising, partial curve]	
CCOC(=O)c1c(C=O)c(C)n(Cc2ccccc2Cl)c1C	32.6 µM [falling, single point]	
O=c1cc(CNc2ccc(Br)cc2)nc2sccn12	0.82 µM [rising, full curve]	
COc1cccc(N2C(=O)CC(N3CCN(C(=O)c4ccco4)CC3)C2=O)c1 (centres undefined)	29.1 µM [rising, single point]	
COc1ccc(S(=O)(=O)N2CCOCC2)cc1NC(=O)COC(=O)C1=COCCO1	25.1 µM [falling, single point]	
CC(C)CNC(=S)N1CCC(NC(=O)c2ccco2)CC1	35.5 µM [rising, single point]	
CCCC[n+]1ccn(C2=C([O-])c3ccccc3C(=O)/C2=N\S(=O)(=O)c2ccccc2)c1	35.5 µM [falling, single point]	17.8 µM [rising, partial curve, poor fit]
Cc1ccccc1NC(=O)Cc1cn(C)c2ccccc12	7.31 µM [falling, partial curve, poor fit]	
O=c1c2ccccc2c(=O)n(Cc2ccccc2)n1Cc1ccccc1	5.17 µM [falling, partial curve]	
CCn1c(SCC(=O)Nc2nc(C)cs2)nnc1-c1ccncc1	0.112 µM [falling, full curve, poor fit]	
Cc1cc(=O)oc2cc(OCC(=O)Nc3ccccc3C(=O)O)ccc12	2.82 µM [falling, full curve]	
COC(=O)c1cc2occc2n1Cc1c(F)cccc1Cl	17.8 µM [rising, partial curve, poor fit]	
O=C(CSc1nnnn1-c1ccccc1)NC(=O)NCc1ccco1	4.61 µM [falling, single point]	
O=c1c2c(nc3cc(-c4ccc(Cl)cc4)[nH]n13)CCS2	0.461 µM [falling, full curve]	
Cc1ccc(-c2c3c(=O)n(C)c(=O)n(C)c3cn2-n2cnnc2)cc1	25.1 µM [falling, single point]	
NNC(=O)C1CC(O)CN1S(=O)(=O)c1ccc2ccccc2c1 (centres undefined)	25.9 µM [rising, single point]	
O=C(CCn1c(=S)[nH]c2ccccc2c1=O)N1CCCCC1	31.6 µM [rising, single point]	
CN(C)S(=O)(=O)c1ccc(NC(=O)CN2CCN(c3ccccn3)CC2)cc1	3.98 µM [falling, single point]	
COCCNC(=S)N/N=C(\C)c1ccc(OC(F)F)cc1		31.6 µM [falling, single point]
Cc1cccc(OCC(=O)N2CCCc3ccccc32)c1	0.251 µM [rising, full curve, poor fit]	

SMILES	AC50 [1]	AC50 [2]
Cc1cc(N(C)C)c(C#N)c(NCc2ccccc2)n1	8.91 µM [rising, partial curve]	
CCCOc1ccc2c(CC)cc(=O)oc2c1C	8.2 µM [rising, partial curve, poor fit]	3.26 µM [falling, partial curve, poor fit]
CCN1CCN(c2cc(C)c3cc(NC(=O)Cc4ccc(OC)c(OC)c4)ccc3n2)CC1	13 µM [rising, partial curve, poor fit]	
O=C(N/N=C/c1ccc(Br)s1)c1ccccn1	8.2 µM [falling, partial curve]	
Cc1cc(-c2ccccc2)nc(N/N=C/c2cccnc2)n1	1.58 µM [falling, partial curve, poor fit]	
COc1ccc2nc(-c3ccccc3)cc(C(=O)N3CCC3)c2c1	0.731 µM [rising, partial curve, poor fit]	
O=C(/C=C/c1ccc(F)cc1)N1CCN(c2ccccn2)CC1	3.26 µM [rising, single point]	
CCS/C(N)=N/N=C/c1cc(C)ccc1O	18.4 µM [falling, single point]	29.1 µM [falling, single point]
COc1cccc(C(=O)Nc2c(C(N)=O)oc3ccccc23)c1	1.46 µM [falling, partial curve]	
COc1cc(/C(C)=N/NC(=O)CSc2nc3ccccc3[nH]2)ccc1O	35.5 µM [falling, single point]	
O=C(Nc1ccccc1)c1cccc(N2C(=O)C3C4C=CC(C4)C3C2=O)c1 (centres undefined)	12.6 µM [falling, partial curve]	
CC1C(=O)N(Cc2ccc(F)cc2)c2ccccc2N1C(=O)c1c(F)cccc1F (centres undefined)	22.4 µM [falling, single point]	
CCc1cc(C(=O)Nc2ccc(OC)nc2)sc1C	2.91 µM [rising, partial curve, poor fit]	
COc1ccccc1NC(=O)C1=C(C)Nc2nnnn2C1c1cccc(Br)c1 (centres undefined)	11.2 µM [falling, partial curve]	
CCOC(=O)c1csc(NC(=O)c2ccc(OCC)cc2)n1	11.2 µM [falling, partial curve]	
COc1ccccc1-c1ccc(Nc2ccc(C(=O)N3CCOCC3)cc2)nn1	8.2 µM [falling, partial curve]	
CN(c1ccccc1)S(=O)(=O)c1ccc(Cl)c(C(=O)Nc2ccc(-c3nc4ccccc4[nH]3)cc2)c1	2.31 µM [falling, full curve]	
Cn1cnnc1SCC(=O)Nc1ccc(S(=O)(=O)N2CCCC2)cc1	10.3 µM [falling, partial curve, poor fit]	
O=C(O)/C=C/C(=O)NC1CCS(=O)(=O)C1 (centres undefined)	0.731 µM [falling, partial curve, poor fit]	
O=C(CSc1nc2ccccc2[nH]1)Nc1ccc2c(c1)CCC2	29.1 µM [falling, single point]	
Cc1[nH]c2ccc(F)cc2c1CCN1C(=O)OC(C)(C)C1(C)O (centres undefined)	1.12 µM [rising, partial curve, poor fit]	
O=C1COc2ccc(C(=O)COC(=O)/C=C/c3ccc(Br)o3)cc2N1	5.17 µM [rising, full curve]	

Entries of single compounds, quoted from the list:
`Cc1cc(N(C)C)c(C#N)c(NCc2ccccc2)n1` as listed: AC50 [1]: 8.91 µM [rising, partial curve]
`O=C(O)/C=C/C(=O)NC1CCS(=O)(=O)C1` (centres undefined) as listed: AC50 [1]: 0.731 µM [falling, partial curve, poor fit]
`O=C(N/N=C/c1ccc(Br)s1)c1ccccn1` as listed: AC50 [1]: 8.2 µM [falling, partial curve]
`COCCNC(=S)N/N=C(\C)c1ccc(OC(F)F)cc1` as listed: AC50 [2]: 31.6 µM [falling, single point]

The results go on:

SMILES	AC50 [1]	AC50 [2]
CN(C)CC/C=C1/c2ccccc2COc2ccccc21	25.1 µM [falling, single point]	
O=C(Oc1ccc(-c2nnco2)cc1)N(c1ccccc1)c1ccccc1	1.16 µM [rising, partial curve, poor fit]	
CC1=C/C(=C(/c2ccc(O)c(C)c2)c2ccccc2S(=O)(=O)O)C=CC1=O	16.4 µM [rising, single point]	
O=C1CSC(=S)N1c1ccc(O)cc1	10 µM [falling, partial curve, poor fit]	
CN(Cc1ccccc1)C(=O)CCCn1c(=O)c2cccn2c2cccnc21	0.562 µM [rising, full curve]	
O=C(NOCc1ccccc1)c1ccc(Cl)cc1Cl	0.517 µM [rising, full curve, poor fit]	
CN(C(=O)CSc1nnc(N)s1)C1CCCCC1	14.1 µM [rising, single point]	
CCO[C@H]1OC(C(=O)N2CCCCCCC2)=C[C@@H](c2csc3ccccc23)[C@@H]1CCCO	0.0891 µM [falling, full curve, poor fit]	
COc1ccccc1N1CC(C(=O)Nc2ccc(N3CCOCC3)cc2)CC1=O (centres undefined)	0.58 µM [rising, full curve]	
CC(C)c1ccc(C(=O)NCc2ccc(Cl)cc2)cc1	14.6 µM [rising, partial curve]	
COc1cc(C(N)=O)cc(Cl)c1OCc1ccccc1	16.4 µM [rising, partial curve]	
O=C1N/C(=C/c2cccs2)C(=O)N1Cc1ccccc1F	0.501 µM [falling, full curve, poor fit]	
Cc1ccc(-n2cc(CN3CCC(CO)(Cc4ccccc4)CC3)cn2)cc1	0.282 µM [falling, partial curve, poor fit]	
COC(=O)c1ccc(-c2nc3cc(N)ccc3o2)cc1	2.59 µM [rising, partial curve]	
O=c1oc2ccccc2c(N2CCCCC2)c1[N+](=O)[O-]	9.2 µM [falling, partial curve, poor fit]	
S=C(NC1CC1)NC1CCCc2ccccc21 (centres undefined)	7.94 µM [falling, partial curve]	
COc1ccc2[nH]c(C)c(CCNC(=S)Nc3ccc(F)cc3)c2c1	35.5 µM [falling, partial curve, poor fit]	
COc1ccc(Cl)cc1NC(=O)CCCNC(=O)c1ccc(Cl)cc1	1.58 µM [rising, partial curve, poor fit]	
O=C(c1ccc(Br)o1)N1CCN(c2ccccn2)CC1	1.3 µM [rising, full curve, poor fit]	
CNC(=O)c1cc2cc(OC)ccc2n1CCN(Cc1ccccc1)Cc1ccccc1	18.4 µM [rising, single point]	
O=C(Nc1ccc(Cl)cc1Cl)C1=Cc2ccccc2OC1	7.31 µM [rising, partial curve, poor fit]	
CCC(C(=O)NCc1ccc(F)cc1)N(CCc1ccccc1)C(=O)c1snc(C(N)=O)c1N (centres undefined)	35.5 µM [falling, partial curve, poor fit]	

A different layout for 2 compounds above:
O=C(CSc1nnnn1-c1ccccc1)NC(=O)NCc1ccco1
  AC50 [1]: 4.61 µM [falling, single point]
COc1ccccc1NC(=O)C1=C(C)Nc2nnnn2C1c1cccc(Br)c1 (centres undefined)
  AC50 [1]: 11.2 µM [falling, partial curve]
